Laboratory results published in PMC11626146.
No constants are given. Whether binding was seen depends on the method and setting. In cells and extracts the contact can be indirect. Some binding calls cover weakened binding; strength is not graded here.

Target: T1, Beclin1 (BECN1) (mouse (endogenous in small intestinal epithelial cells)), O88597
T1 chain: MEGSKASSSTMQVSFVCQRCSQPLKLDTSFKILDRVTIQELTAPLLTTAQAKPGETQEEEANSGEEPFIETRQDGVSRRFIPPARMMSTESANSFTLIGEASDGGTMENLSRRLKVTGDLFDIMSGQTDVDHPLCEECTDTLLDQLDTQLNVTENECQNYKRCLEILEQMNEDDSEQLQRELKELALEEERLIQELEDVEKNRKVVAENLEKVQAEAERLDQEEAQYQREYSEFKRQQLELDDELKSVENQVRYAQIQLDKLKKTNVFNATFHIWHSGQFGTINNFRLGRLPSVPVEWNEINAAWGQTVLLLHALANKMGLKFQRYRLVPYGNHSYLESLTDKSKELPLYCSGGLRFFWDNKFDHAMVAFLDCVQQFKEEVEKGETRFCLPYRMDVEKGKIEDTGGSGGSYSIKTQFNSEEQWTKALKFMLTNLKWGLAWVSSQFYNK
Assay: co-IP; small intestinal epithelial cell lysates (T-PER, 5 mg/mL) from uninfected or S. Typhimurium-infected (24 h) germ-free wild-type and Myd88-/- mice; immunoprecipitated with mouse anti-BECN1 on Protein A agarose at 4 °C, washed three times with T-PER, blotted with anti-BCL2-HRP and rabbit anti-BECN1
Details: remark: other sources report otherwise

binding: binds
B1: B cell lymphoma 2 (BCL2), P10417 1-236 (protein)
chain: MAQAGRTGYDNREIVMKYIHYKLSQRGYEWDAGDADAAPLGAAPTPGIFSFQPESNPMPAVHRDMAARTSPLRPLVATAGPALSPVPPVVHLTLRRAGDDFSRRYRRDFAEMSSQLHLTPFTARGRFATVVEELFRDGVNWGRIVAFFEFGGVMCVESVNREMSPLVDNIALWMTEYLNRHLHTWIQDNGGWDAFVELYGPSMRPLFDFSWLSLKTLLSLALVGACITLGAYLGHK
